Measurements: patent US20140051601A1, “METABOLOMIC PROFILING OF CANCER” (METABOLAN INC., priority 2006, published 2014)
Where a name gives a salt, the structure may show the parent alone. Where a SMILES comes first, the peptide text is derived from it.

Experiment: Urine metabolic profiling, GS major 3 versus GS major 4 prostate cancer
Design: species or system human
Conditions: urine metabolite level; more aggressive (GS major 4) vs less aggressive (GS major 3) prostate cancer

Compound	% Change in Aggressive PCA [%]
Cn1c(=O)c2c([nH]c(=O)n2C)n(C)c1=O [1,3-7-trimethyluric acid]	−66.55
Cn1c(=O)[nH]c2[nH]c(=O)n(C)c2c1=O [1-7-dimethylurate]	−62.29
Cn1cnc2c(ncn2[C@@H]2O[C@H](CO)[C@@H](O)[C@H]2O)c1=N [1-methyladenosine]	43.02
Cn1c(=O)[nH]c2[nH]c(=O)[nH]c2c1=O [1-methylurate]	−49.8
Cn1c(=O)[nH]c2nc[nH]c2c1=O [1-methylxanthine]	−67.91
CC(C)C(O)(CC(=O)O)C(=O)O (stereo not shown) [2-isopropylmalate]	166.3
O=C(O)Cc1ccc(O)c(O)c1 [3-4-dihydroxyphenylacetate]	123.2
O=S(=O)(O)Oc1c[nH]c2ccccc12 [3-indoxyl-sulfate]	−23.75
Cn1cncc1C[C@H](N)C(=O)O [3-methylhistidine]	102.4
Cn1c(=O)[nH]c(=O)c2[nH]cnc21 [3-methylxanthine]	−72.5
NC(=O)NCCC(=O)O [3-ureidopropionate]	27.57
CC(=O)NCCCC(=O)O [4-acetamidobutanoate]	59.98
N=C(N)NCCCC(=O)O [4-guanidinobutanoate]	174.7
O=C(O)c1ccc(O)cc1 [4-hydroxybenzoate]	71.09
O=C(O)C(O)c1ccc(O)cc1 (stereo not shown) [4-hydroxymandelate]	89.8
NC(=O)NCCCC(=O)O [4-ureidobutyrate]	60.31
O=C(O)Cc1c[nH]c2ccc(O)cc12 [5-hydroxyindoleacetate]	84.95
O=C1CC[C@@H](C(=O)O)N1 [5-oxoproline]	−29.7
C[n+]1cn([C@@H]2O[C@H](CO)[C@@H](O)[C@H]2O)c2nc(N)[nH]c(=O)c21 [7-methylguanosine]	84.95
CC(=O)N[C@@H](CCCNC(=N)N)C(=O)O [N-acetylarginine]	85.96
CC(=O)N[C@@H](CC(=O)O)C(=O)O [N-acetylaspartate (NAA)]	94.62
CC(=O)N[C@@H](Cc1c[nH]cn1)C(=O)O [N-acetylhistidine]	59.11

Compound	% Change in Aggressive PCA [%]
CC(=O)N[C@@H](Cc1ccccc1)C(=O)O [N-acetylphenylalanine]	66.64
CC(=O)N[C@H](C(=O)O)[C@@H](C)O [N-acetylthreonine]	78.16
CC(=O)N[C@H](C(=O)O)C(C)C [N-acetylvaline]	66.01
Nc1ncnc2c1ncn2[C@@H]1O[C@H](CSCC[C@H](N)C(=O)O)[C@@H](O)[C@H]1O [S-adenosylhomocysteine (SAH)]	62.81
C[C@H](O)[C@H](N)C(=O)O [allo-threonine]	307.6
O=C[C@@H](O)[C@H](O)[C@H](O)CO [arabinose]	148.4557
OC[C@@H](O)C(O)[C@H](O)CO [arabitol]	98.61
O=C1O[C@H]([C@@H](O)CO)C(O)=C1O [ascorbate (Vitamin C)]	176
C[N+](C)(C)CC(=O)O [betaineQUM]	111.1
O=C(O)/C=C(/CC(=O)O)C(=O)O [cis-aconitate]	−25.83
O=C(O)CC(O)(CC(=O)O)C(=O)O [citrate]	159.3
CN(CC(=O)O)C(=N)N [creatine]	239.6
C[C@]12CC[C@H](OS(=O)(=O)O)CC1=CC[C@@H]1[C@@H]2CC[C@]2(C)C(=O)CC[C@@H]12 [dehydroisoandrosterone sulfate (DHEA-S)]	153.8
CN(C)CC(=O)O [dimethylglycine]	89.87
OC[C@@H](O)[C@H](O)[C@H](O)[C@@H](O)CO [galactitol-dulcitol-]	352.7
CC[C@H](C)[C@H](NC(=O)CC[C@H](N)C(=O)O)C(=O)O [gamma-glutamylisoleucine*]	83.47
CC(C)C[C@H](NC(=O)CC[C@H](N)C(=O)O)C(=O)O [gamma-glutamylleucine]	100.9
N[C@@H](CCC(=O)N[C@@H](Cc1ccc(O)cc1)C(=O)O)C(=O)O [gamma-glutamyltyrosine]	199.7
N[C@@H](CCC(=O)N[C@@H](Cc1ccccc1)C(=O)O)C(=O)O [gammaglutamylphenylalanine]	116.5
CC(C)[C@H](NC(=O)[C@@H](N)CCC(=O)O)C(=O)O [glutamylvaline] (H-Glu-Val-OH)	53.61
O=P(O)(O)OCC(O)CO (stereo not shown) [glycerol 3-phosphate (G3P)]	96.66
C[N+](C)(C)CCOP(=O)([O-])OC[C@H](O)CO [glycerophosphorylcholine (GPC)]	−31

Compound	% Change in Aggressive PCA [%]
NCC(=O)O [glycine]	51.52
O=C(O)CO [glycolate (hydroxyacetate)]	103.8
NCC(=O)N1CCC[C@H]1C(=O)O [glycylproline] (H-Gly-Pro-OH)	81.32
O=C1O[C@@H]([C@H](O)CO)[C@@H](O)[C@H]1O [gulono-1-4-lactone]	61.59
COc1cc(CC(=O)O)ccc1O [homovanillate (HVA)]	87.32
O=C(O)CNCC(=O)O [iminodiacetate-IDA-]	44.48
O=C(O)Cc1c[nH]c2ccccc12 [indoleacetate*]	105.9
O=C(O)C(O)Cc1c[nH]c2ccccc12 (stereo not shown) [indolelactate]	101.8
CC(C)C(=O)O[C@H](CC(=O)[O-])C[N+](C)(C)C [isobutyrylcarnitine]	55.35
CC[C@H](C)[C@H](N)C(=O)O [isoleucine]	54.7
Nc1ccccc1C(=O)CC(N)C(=O)O (stereo not shown) [kynurenine]	132.4
OC[C@H]1O[C@@H](O[C@H]2[C@H](O)[C@@H](O)[C@@H](O)O[C@@H]2CO)[C@H](O)[C@@H](O)[C@H]1O [lactose]	108.8
OC[C@H]1OC(O)[C@@H](O)[C@@H](O)[C@@H]1O (stereo partly shown) [mannose]	108
CSCC[C@H](N)C(=O)O [methionine]	93.23
NCCO [monoethanolamine]	159.4
Cn1c(=O)[nH]c2ncn(C)c2c1=O [paraxanthine]	−63.9
O=C(O)CNC(=O)Cc1ccccc1 [phenylacetylglycine]	90.17
N[C@@H](Cc1ccccc1)C(=O)O [phenylalanine]	57.32
O=c1[nH]cc([C@@H]2O[C@H](CO)[C@@H](O)[C@H]2O)c(=O)[nH]1 [pseudouridine]	54.52
Cc1ncc(CO)c(C=O)c1O [pyridoxal]	54.86
CC(=O)C(=O)O [pyruvate]	62.15
O=C(O)c1cccnc1C(=O)O [quinolinate]	61.92

Compound	% Change in Aggressive PCA [%]
O=C(O)[C@H](O)[C@H](O)[C@H](O)CO [ribonate]	100.4
CNCC(=O)O [sarcosine, N-methylglycine]	89.66
N[C@@H](CO)C(=O)O [serine]	80.6
NCCCNCCCCNCCCN [spermine]	−78.27
O=C(O)[C@H](O)[C@@H](O)CO [threonate]	94.31
C[C@@H](O)[C@H](N)C(=O)O [threonine]	77.88
Cc1c[nH]c(=O)[nH]c1=O [thymine]	71.13
N[C@@H](Cc1c[nH]c2ccccc12)C(=O)O [tryptophan]	80.31
N[C@@H](Cc1ccc(O)cc1)C(=O)O [tyrosine]	99.34
Oc1nc(O)c2nc(O)[nH]c2n1 [urate-]	−49.86
O=C(O)/C=C/c1cnc[nH]1 [urocanate]	55.54
CC(C)[C@H](N)C(=O)O [valine]	132.4
O=C[C@H](O)[C@@H](O)[C@H](O)CO [xylose]	79.58
azelate (nonanedioate)	207.3
fumarate	−27.16
glucarate (saccharate)	78.74
gluconate	135.4
lactate	−29.29
mesaconate (methylfumarate)	−48.02
